# In PubChem BioAssay AID488837 (National Center for Advancing Translational Sciences (NCATS), 2010):
# Sequences of proteins named here, by UniProt entry; tags and fusion partners are left off. A change or cut given only in a name is not applied to a line headed by its entry.
# UniProt O00167: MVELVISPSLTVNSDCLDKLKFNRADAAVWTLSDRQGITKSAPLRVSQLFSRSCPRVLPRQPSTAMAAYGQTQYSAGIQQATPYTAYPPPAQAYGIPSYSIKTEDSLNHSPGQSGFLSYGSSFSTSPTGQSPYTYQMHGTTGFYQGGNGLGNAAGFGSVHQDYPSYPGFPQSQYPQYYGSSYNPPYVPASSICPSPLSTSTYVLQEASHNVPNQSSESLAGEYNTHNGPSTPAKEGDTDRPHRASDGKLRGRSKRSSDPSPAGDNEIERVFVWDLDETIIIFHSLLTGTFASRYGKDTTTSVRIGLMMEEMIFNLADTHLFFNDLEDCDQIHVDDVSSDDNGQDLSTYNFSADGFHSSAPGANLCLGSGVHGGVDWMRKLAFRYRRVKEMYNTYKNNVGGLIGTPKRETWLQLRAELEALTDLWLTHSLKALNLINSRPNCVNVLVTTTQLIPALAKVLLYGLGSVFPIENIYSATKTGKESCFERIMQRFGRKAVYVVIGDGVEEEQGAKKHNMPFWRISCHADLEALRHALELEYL
# Screen size: about 330,000 compounds; about 20 (0.006%) were called active. The shares of active, inactive and inconclusive entries below differ from those in the screen. The call rests on the fitted dose curve; in most records, active means well fitted inhibition curve with a large enough effect; inconclusive means small, poorly fitted or top-dose-only effect, or effect the other way; inactive means flat fitted curve, though single readings scatter. Potencies of inconclusive entries are doubtful fits and often do not repeat.
# Target: Protein phosphatase EYA2 (Homo sapiens) (UniProt O00167)
# Assay: qHTS Assay for Inhibitors of the Phosphatase Activity of Eya2
# Conditions: recombinant Eya2, OMFP fluorescence dephosphorylation (OMFP is methylfluorescein phosphate); activity, negative = inhibition: at 76.9 µM (top of the series) unless noted
# Method in brief: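 Eya2 protein (added as 0.2 uM solution) was preincubated with compound for 10 min at ambient temperature in 50 mM HEPES pH 7.5, 50 mM NaCl, 5 uM MgCl2, 0.05% BSA, 1 mM DTT. OMFP (added at 50 uM) then reacted 10 min; fluorescence read at 485/525 nm.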
# On the % scale 0 is the no-effect control and ±100 the full control effect; potency means the concentration at half of the fitted maximal effect.
SMILES,"activity, negative = inhibition",Potency
COCCN(CC(=O)NCC1CCCO1)C(=O)CCC(=O)Nc1cc(C)ccn1 (stereo not given),inactive: 1.13%,–
COc1cc(/C=C2/SC(=S)N(Cc3ccccc3)C2=O)ccc1O,–,"inconclusive: 31.6 µM [activator, partial curve]"
Cc1ccc(C)c(C(=O)CN2Cc3ccccc3C2=O)c1,–,"inconclusive: 200 µM [inhibitor, partial curve, poor fit]"
O=C(O)c1nn(Cc2ncc(-c3cccc(Cl)c3)o2)c(=O)c2ccccc12,–,"inconclusive: 112 µM [inhibitor, single point]"
Fc1ccc(-c2csc(N3CCC(c4ccccc4)C3)n2)cc1 (stereo not given),inconclusive: 30.8% [activator],–
NC(N)=N/N=C/c1cc([N+](=O)[O-])ccc1O,inactive: -0.375%,–
CCC(=O)NC(c1ccc(C)cc1)c1cc(Cl)c2cccnc2c1O (stereo not given),inactive: 6.45%,–
CCCCCCCC(=O)NN1CCOCC1,–,"inconclusive: 25.1 µM [inhibitor, partial curve, poor fit]"
CC1CCCCN1CCCNC(=O)c1ccc(N2CCCC2=O)cc1 (stereo not given),–,"inconclusive: 25.1 µM [inhibitor, partial curve, poor fit]"
Cc1cc(C(=O)O)ccc1-c1ccc(/C=N/n2cnnc2)o1,–,"inconclusive: 112 µM [inhibitor, single point]"
C/C(CC(=O)Nc1cccc(F)c1)=N\NC(=O)c1ccncc1,–,"inconclusive: 2000 µM [inhibitor, partial curve, poor fit]"
O=C(O)c1cc(O)ccc1N=Nc1ccccc1,–,"inconclusive: 100 µM [inhibitor, single point]"
Cc1cc2ccccc2n1CCNC(=O)c1cccs1,inactive: 7.07%,–
COc1ccc(NC(=O)CSc2nc3ccccc3cc2Cc2ccccc2)cc1,–,"inconclusive: 22.4 µM [inhibitor, single point]"
O=C(Nc1ccc(S(=O)(=O)Nc2ccccn2)cc1)c1ccc(Cl)cc1Cl,–,"inconclusive: 56.2 µM [inhibitor, partial curve]"
CCOc1ccc(C(=O)C[n+]2cccc3cc(C)ccc32)cc1,–,"inconclusive: 25.1 µM [inhibitor, single point]"
N#C/C(=N\Nc1ccc(Cl)cc1)C(=O)c1ccccc1,inactive: -7.13%,–
CC(C)CCC(CC(C)O)C(=O)NNC(=S)Nc1ccccc1 (stereo not given),–,"inconclusive: 447 µM [inhibitor, partial curve, poor fit]"
CC(C)(C)C(=O)Nc1ccc(C(=O)COC(=O)C2=COCCO2)cc1,–,"inconclusive: 15.8 µM [inhibitor, single point]"
CC(C)(C)NC(=S)Nc1ccc(Nc2ccccc2)cc1,–,"inconclusive: 22.4 µM [inhibitor, single point]"
Oc1ccccc1-c1nc2c3ccccc3c3ccccc3c2[nH]1,–,"inconclusive: 56.2 µM [inhibitor, partial curve, poor fit]"
COc1ccc(C(=O)CN2C(=O)c3ccccc3C2=O)cc1,–,"inconclusive: 100 µM [inhibitor, single point]"
O=C(O)c1ccc(NC(=O)c2cn(-c3ccccc3)nc2-c2ccccc2)cc1,–,"inconclusive: 22.4 µM [inhibitor, single point]"

SMILES,"activity, negative = inhibition",Potency
CC(=O)c1csc(-c2ccccc2)n1,inactive: -0.987%,–
CCOc1ccc(/C=N/Nc2cc(C)nc(N3CCOCC3)n2)cc1,–,"inconclusive: 112 µM [inhibitor, single point]"
COc1ccc(/C(N)=N/OC(=O)CCc2ccccc2)cc1OC,–,"inconclusive: 100 µM [inhibitor, single point]"
O=C1NC2(CCCC2)Oc2ccccc21,–,"inconclusive: 28.2 µM [inhibitor, single point]"
Cc1ccccc1NC(=O)CN1CCc2ccccc2C1,–,"inconclusive: 89.1 µM [inhibitor, single point]"
S=c1[nH]nc(C(c2ccccc2)C2CCCCC2)o1 (stereo not given),–,"inconclusive: 112 µM [inhibitor, single point]"
CCCn1[nH]cc(SC)c(=O)c1=O,inconclusive: 46.7% [activator] [at 15.4 µM],–
CC1=NN(C(=O)c2cccc(Cn3nc(C)c([N+](=O)[O-])c3C)c2)C(O)(C(F)(F)F)C1 (stereo not given),–,"inconclusive: 178 µM [inhibitor, partial curve, poor fit]"
Cc1nc2c(-c3ccccc3)cnn2c(N)c1-c1ccccc1,–,"inconclusive: 56.2 µM [inhibitor, partial curve, poor fit]"
O=C(Cc1c(O)c2ccccc2[nH]c1=O)NC1CCCCCCC1,inactive: 19.6% [at 15.4 µM],–
Nc1ccccc1-c1nc2ccccc2[nH]1,–,"inconclusive: 17.8 µM [inhibitor, partial curve]"
Cc1nn(-c2ccc(F)cc2)c2c1cc(C#N)c1nc3ccccc3n12,inactive: 1.86%,–
O=C(NCc1ccc(F)cc1)c1ccc(CNc2c(N3CCOCC3)c(=O)c2=O)cc1,–,"inconclusive: 100 µM [inhibitor, single point]"
COc1ccccc1NC(=O)N1CCCC(CNC(=O)c2ccccc2Cl)C1 (stereo not given),–,"inconclusive: 70.8 µM [inhibitor, single point]"
COc1ccc(Cl)cc1NC(=O)COC(C)=O,–,"inconclusive: 891 µM [inhibitor, partial curve]"
COc1cc(OC)c(OC)cc1/C=C1\Oc2cc(OCC(=O)N3Cc4ccccc4C[C@H]3C(=O)O)ccc2C1=O,–,"inconclusive: 31.6 µM [activator, partial curve]"
CC(=O)NCC(=O)N1CCCC(C(=O)c2ccc3c4c(cccc24)CC3)C1 (stereo not given),–,"inconclusive: 100 µM [inhibitor, single point]"
CC1CCCN(CC(O)COCC2COc3ccccc3O2)C1 (stereo not given),inactive: -0.84%,–
O=C(NCCN1C(=O)S/C(=C\c2ccccc2Cl)C1=O)C1=COCCO1,inactive: -15.2%,–
CN(C)Cc1c(C(=O)N/N=C/c2cccc(OCc3c(F)cccc3Cl)c2)nnn1-c1nonc1N,inactive: -1.34%,–
Cc1ccc(O)c(NC(=O)CN(C)S(=O)(=O)c2ccc(Cl)cc2)c1,–,"inconclusive: 22.4 µM [inhibitor, single point]"
CCN1CCc2c(sc(NC(=O)Nc3ccc(Cl)c(Cl)c3)c2C(N)=O)C1,–,"inconclusive: 39.8 µM [activator, partial curve]"

# An excerpt from above in order of SMILES length, smallest number first.
SMILES,"activity, negative = inhibition",Potency
O=C1NC2(CCCC2)Oc2ccccc21,–,"inconclusive: 28.2 µM [inhibitor, single point]"
CCOc1ccc(/C=N/Nc2cc(C)nc(N3CCOCC3)n2)cc1,–,"inconclusive: 112 µM [inhibitor, single point]"
O=C(NCCN1C(=O)S/C(=C\c2ccccc2Cl)C1=O)C1=COCCO1,inactive: -15.2%,–
